Measured values published in doi:10.1101/2023.12.18.572145.

Target: PREPL β-propeller domain alone (MAPPIT bait) (human) (UniProt Q4J6C6)
Experiment: two-hybrid

binding: no binding
B1: STX5 (protein, UniProt Q13190 1-355)
chain: MIPRKRYGSKNTDQGVYLGLSKTQVLSPATAGSSSSDIAPLPPPVTLVPPPPDTMSCRDRTQEFLSACKSLQTRQNGIQTNKPALRAVRQRSEFTLMAKRIGKDLSNTFAKLEKLTILAKRKSLFDDKAVEIEELTYIIKQDINSLNKQIAQLQDFVRAKGSQSGRHLQTHSNTIVVSLQSKLASMSNDFKSVLEVRTENLKQQRSRREQFSRAPVSALPLAPNHLGGGAVVLGAESHASKDVAIDMMDSRTSQQLQLIDEQDSYIQSRADTMQNIESTIVELGSIFQQLAHMVKEQEETIQRIDENVLGAQLDVEAAHSEILKYFQSVTSNRWLMVKIFLILIVFFIIFVVFLA

No constants are given. Whether binding was seen depends on the method and setting.
